Consider 22 compounds from PubChem BioAssay AID330 (DTP/NCI, 2004).

The list is a part of this screen's results and no random one: it gathers tests that were run many times, whatever their T/C, doses with no T/C, and many T/C values between a quarter and a half above the control. Other doses and runs of a compound stand elsewhere. T/C gives the treated animals as a percentage of the vehicle group. Some doses have a count of surviving animals in place of a T/C: the source files T/C as zero there, which appears to mark a toxic dose or a test without result, not a measured value. Some survivor counts are full or nearly so, which does not show that the dose was tolerated: survival well below the control is almost never listed, so the zero probably covers shortened survival too. Survivors were counted at the toxicity check, usually on the fifth day, unless a day is given; later deaths do not show. Schedules are NCI's codes, read here as Q, the interval in days (D) or hours (H), X, the number of doses. Where survival is the endpoint, this PubChem deposit counts one and a half times the control or more as active, and values a quarter to a half above the control carry no call in these data; other NCI protocols may use other cut-offs. Some T/C values carry the count of animals alive at the toxicity check (mostly the fifth day); where none is given, no animal had died by that day.

The subject of this experiment is P388 leukemia ip, CD2F1 mice, survival T/C. The experiment can be described thus: NCI In Vivo Anticancer Drug Screen. Data for tumor model P388 Leukemia (intraperitoneal) in CD2F1 (CDF1) mice. Particulars: T/C endpoint: median survival time, higher T/C = longer survival.
Where [1] appears, read: dose: 200.0 mg/kg/injection, schedule: Q01DX005 (ip), vehicle: saline with Tween-80.
[2] abbreviates: dose: 50.0 mg/kg/injection, schedule: Q01DX005 (ip), vehicle: Klucel (hydroxypropylcellulose) (HPC).
Where [3] appears, read: dose: 200.0 mg/kg/injection, schedule: Q01DX005 (ip), vehicle: Klucel (hydroxypropylcellulose) (HPC).
Setting [4] is: dose: 50.0 mg/kg/injection, schedule: Q01DX009 (ip), vehicle: saline.
[5] abbreviates: dose: 100.0 mg/kg/injection, schedule: Q01DX009 (ip), vehicle: saline with Tween-80.
The mark [6] stands for this setting: dose: 200.0 mg/kg/injection, schedule: Q01DX001 (ip), vehicle: saline with Tween-80.
[7] abbreviates: dose: 400.0 mg/kg/injection, schedule: Q01DX001 (ip), vehicle: saline with Tween-80.
[8] abbreviates: dose: 400.0 mg/kg/injection, schedule: Q04DX002 (ip), vehicle: saline with Tween-80.

Take `COc1ccc(CNCC#N)c(OC)c1`: the survivor count under setting [1] is on record as 0 of 6.

Consider `CCN(CC)CCOC(=O)Cc1cccc2c(=O)cc(-c3ccc(OC)cc3)oc12`, for which the T/C by setting is: under setting [2], 138 % of control; (dose: 100.0 mg/kg/injection, schedule: Q01DX005 (ip), vehicle: Klucel (hydroxypropylcellulose) (HPC)) 127 % of control [5 of 6 alive]. Besides, the survivor count under setting [3] was 1 of 6.

As to `C=[CH][Sn](=[O])[CH]=C`, the survivor count under setting [4] is given as 6 of 6.

Consider `O=C1CC2C=CC2C1` (stereo not given), for which the survivor count (dose: 50.0 mg/kg/injection, schedule: Q01DX009 (ip), vehicle: saline with Tween-80) is reported as 6 of 6 and the survivor count under setting [5] is listed as 6 of 6.

Take `CCCCCCCOc1cccc(OCCCC[N+]2(CC)CCCCC2)c1`: the survivor count under setting [4] is listed as 0 of 6; the survivor count (dose: 100.0 mg/kg/injection, schedule: Q01DX009 (ip), vehicle: saline) is recorded as 0 of 6; the survivor count (dose: 200.0 mg/kg/injection, schedule: Q01DX009 (ip), vehicle: saline) is on record as 0 of 6.

Consider `C(=N\Nc1ccc2ccccc2n1)/c1ccccn1.CC(=O)[O-].CC(=O)[O-].[Zn+2]`, for which the survivor count reads like this: (dose: 50.0 mg/kg/injection, schedule: Q01DX005 (ip), vehicle: saline with Tween-80) 2 of 6; (dose: 100.0 mg/kg/injection, schedule: Q01DX005 (ip), vehicle: saline with Tween-80) 0 of 6; under setting [1], 0 of 6.

On to `CC(=O)O/C(C#N)=C1\CCCC\C1=C(\C#N)OC(C)=O`, for which the survivor count by setting is: (dose: 100.0 mg/kg/injection, schedule: Q01DX001 (ip), vehicle: saline with Tween-80) 1 of 6; under setting [6], 0 of 6; under setting [7], 0 of 6.

Take `C/C=C(/C)C(=O)OC/C(=C/C)C(=O)OC1C=CC(C)(C)C(C=O)=C1C` (stereo not given): under “dose: 50.0 mg/kg/injection, schedule: Q01DX009 (ip), vehicle: Klucel (hydroxypropylcellulose) (HPC)”, the survivor count was 6 of 6.

In the case of `Cc1ccc(C)c(C2(c3cc(C)ccc3C)CCCCCC2=O)c1`, the survivor count is listed as 6 of 6 under setting [2] and 6 of 6 under setting [3].

Take `CC1=CC(=O)C=CC1=Nc1ccc(N(C)C)cc1`: under setting [5], the survivor count is reported as 3 of 6.

In the case of `CCN(CC)CCCC(C)NC(=O)Cc1cc(O)c2c(c1O)C(=O)c1ccccc1C2=O` (stereo not given), the T/C (dose: 40.0 mg/kg/injection, schedule: Q01DX009 (ip), vehicle: water) is 125 % of control.

In the case of `CCCCNC(=S)N/N=C/c1nc2ccccc2c(=O)n1-c1ccc(Br)cc1`, the survivor count under setting [8] was 6 of 6.

Take `CN(C)CCC#N`: the survivor count (dose: 400.0 mg/kg/injection, schedule: Q01DX009 (ip), vehicle: saline) was 0 of 6.

Turning to `C[C@]12C=CC(=O)C=C1CC[C@H]1[C@@H]3C[C@@H](O)[C@](O)(C(=O)CO)[C@@]3(C)C[C@H](O)[C@@]12F`, the survivor count (dose: 400.0 mg/kg/injection, schedule: Q04DX003 (ip), vehicle: Klucel (hydroxypropylcellulose) (HPC)) is recorded as 3 of 6.

Consider `O=C[O-].[NH2-].[NH2-].[NH2-].[NH2-].[NH2-].[O-][Cl+3]([O-])([O-])O.[Ru+8]`, for which the T/C by setting is: (dose: 12.5 mg/kg/injection, schedule: Q04DX003 (ip), vehicle: saline) 128 % of control; (dose: 12.5 mg/kg/injection, schedule: Q04DX003 (ip), vehicle: water) 126 % of control. For the same compound, the survivor count by setting is: (dose: 25.0 mg/kg/injection, schedule: Q04DX003 (ip), vehicle: saline) 6 of 6; (dose: 25.0 mg/kg/injection, schedule: Q04DX003 (ip), vehicle: water) 5 of 6; (dose: 50.0 mg/kg/injection, schedule: Q04DX003 (ip), vehicle: water) 0 of 6; (dose: 100.0 mg/kg/injection, schedule: Q04DX003 (ip), vehicle: water) 0 of 6; (dose: 200.0 mg/kg/injection, schedule: Q04DX003 (ip), vehicle: water) 0 of 6.

For `O=C1NC(O)c2cccc([N+](=O)[O-])c2O1` (stereo not given), the survivor count (dose: 400.0 mg/kg/injection, schedule: Q01DX005 (ip), vehicle: saline with Tween-80) is on record as 0 of 5.

For `ClCCN(CCCl)CCOc1ccc(-c2nc3ccccc3[nH]2)cc1`, the T/C reads like this: (dose: 3.13 mg/kg/injection, schedule: Q04DX002 (ip), vehicle: saline with Tween-80) 132 % of control; (dose: 6.25 mg/kg/injection, schedule: Q04DX002 (ip), vehicle: saline with Tween-80) 131 % of control. Further, the survivor count (dose: 12.5 mg/kg/injection, schedule: Q04DX002 (ip), vehicle: saline with Tween-80) is 3 of 6; the survivor count (dose: 25.0 mg/kg/injection, schedule: Q04DX002 (ip), vehicle: saline with Tween-80) is recorded as 0 of 6; the survivor count (dose: 100.0 mg/kg/injection, schedule: Q04DX002 (ip), vehicle: saline with Tween-80) is 0 of 6; the survivor count (dose: 200.0 mg/kg/injection, schedule: Q04DX002 (ip), vehicle: saline with Tween-80) is 0 of 6; the survivor count under setting [8] is listed as 0 of 6.

For `NC(=O)c1c(Cl)nc2sccn12`, the survivor count is listed as 0 of 6 under setting [6] and 0 of 6 under setting [7].

In the case of `COc1ccc(-n2cnc3[nH]ncc3c2=O)cc1`, the survivor count was 6 of 6 (dose: 60.0 mg/kg/injection, schedule: Q01DX005 (ip), vehicle: Klucel (hydroxypropylcellulose) (HPC)); 6 of 6 (dose: 120.0 mg/kg/injection, schedule: Q01DX005 (ip), vehicle: Klucel (hydroxypropylcellulose) (HPC)); 0 of 6 (dose: 240.0 mg/kg/injection, schedule: Q01DX005 (ip), vehicle: Klucel (hydroxypropylcellulose) (HPC)).

In the case of `COc1cc(Br)c(C(=O)N2CCc3ccccc32)cc1OC`, the survivor count (dose: 50.0 mg/kg/injection, schedule: Q01DX009 (ip), vehicle: other) is on record as 6 of 6; the survivor count (dose: 100.0 mg/kg/injection, schedule: Q01DX009 (ip), vehicle: other) was 5 of 6; the survivor count (dose: 200.0 mg/kg/injection, schedule: Q01DX009 (ip), vehicle: other) is reported as 6 of 6.

`COc1ccc(CC2c3cc(OC)c(OC)cc3CCN2C)cc1OC` (stereo not given): the survivor count was 0 of 6 under setting [5] and 0 of 6 (dose: 200.0 mg/kg/injection, schedule: Q01DX009 (ip), vehicle: saline with Tween-80).

As to `COc1ccc2c(c1)C[N+](C)(CCc1ccccc1)[B-]O2` (stereo not given), the survivor count (dose: 200.0 mg/kg/injection, schedule: Q01DX005 (ip), vehicle: saline + Tween-80 + alcohol) is listed as 1 of 6.
